The values that follow come from the supplement of paper PMC6411743.

Protein sequences, listed by entry. Tags and fused reporters are not part of them. Lines headed by an entry give the natural chain unless they say otherwise; changes in a name come on top.
UniProt Q9GZM5: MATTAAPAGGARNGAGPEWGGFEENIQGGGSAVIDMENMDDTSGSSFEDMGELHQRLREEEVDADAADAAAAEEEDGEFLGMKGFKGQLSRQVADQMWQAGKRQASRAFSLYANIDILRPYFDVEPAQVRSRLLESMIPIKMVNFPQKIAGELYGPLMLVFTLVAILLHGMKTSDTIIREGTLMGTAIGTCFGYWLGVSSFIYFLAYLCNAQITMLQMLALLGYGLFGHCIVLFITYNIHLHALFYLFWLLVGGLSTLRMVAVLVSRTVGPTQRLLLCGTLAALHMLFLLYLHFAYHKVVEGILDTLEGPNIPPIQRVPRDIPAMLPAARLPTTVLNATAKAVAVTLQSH
UniProt P55209: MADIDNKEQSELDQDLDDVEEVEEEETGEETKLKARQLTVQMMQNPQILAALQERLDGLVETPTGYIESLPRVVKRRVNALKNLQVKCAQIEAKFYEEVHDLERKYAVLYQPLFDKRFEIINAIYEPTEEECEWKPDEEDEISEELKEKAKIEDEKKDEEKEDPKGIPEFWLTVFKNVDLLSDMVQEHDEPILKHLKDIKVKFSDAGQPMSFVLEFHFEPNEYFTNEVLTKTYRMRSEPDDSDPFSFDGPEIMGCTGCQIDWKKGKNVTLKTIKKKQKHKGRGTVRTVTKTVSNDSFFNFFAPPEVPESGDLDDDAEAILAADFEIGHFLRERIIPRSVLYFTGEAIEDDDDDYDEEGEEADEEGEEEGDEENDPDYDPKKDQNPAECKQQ
UniProt Q9GZZ1: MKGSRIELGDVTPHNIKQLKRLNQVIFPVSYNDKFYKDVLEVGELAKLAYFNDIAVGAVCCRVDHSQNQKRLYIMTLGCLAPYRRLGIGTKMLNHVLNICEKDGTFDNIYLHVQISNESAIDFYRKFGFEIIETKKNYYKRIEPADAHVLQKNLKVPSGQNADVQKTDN
UniProt Q9H3F6: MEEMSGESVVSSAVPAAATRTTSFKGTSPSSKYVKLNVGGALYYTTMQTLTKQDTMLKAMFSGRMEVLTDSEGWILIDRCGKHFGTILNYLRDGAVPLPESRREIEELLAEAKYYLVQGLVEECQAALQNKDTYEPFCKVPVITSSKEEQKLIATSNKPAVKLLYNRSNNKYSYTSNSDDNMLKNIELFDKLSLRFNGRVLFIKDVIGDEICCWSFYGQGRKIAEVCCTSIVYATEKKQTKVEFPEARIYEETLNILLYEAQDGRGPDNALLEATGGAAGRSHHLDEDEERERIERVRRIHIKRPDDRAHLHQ
UniProt Q7KZI7: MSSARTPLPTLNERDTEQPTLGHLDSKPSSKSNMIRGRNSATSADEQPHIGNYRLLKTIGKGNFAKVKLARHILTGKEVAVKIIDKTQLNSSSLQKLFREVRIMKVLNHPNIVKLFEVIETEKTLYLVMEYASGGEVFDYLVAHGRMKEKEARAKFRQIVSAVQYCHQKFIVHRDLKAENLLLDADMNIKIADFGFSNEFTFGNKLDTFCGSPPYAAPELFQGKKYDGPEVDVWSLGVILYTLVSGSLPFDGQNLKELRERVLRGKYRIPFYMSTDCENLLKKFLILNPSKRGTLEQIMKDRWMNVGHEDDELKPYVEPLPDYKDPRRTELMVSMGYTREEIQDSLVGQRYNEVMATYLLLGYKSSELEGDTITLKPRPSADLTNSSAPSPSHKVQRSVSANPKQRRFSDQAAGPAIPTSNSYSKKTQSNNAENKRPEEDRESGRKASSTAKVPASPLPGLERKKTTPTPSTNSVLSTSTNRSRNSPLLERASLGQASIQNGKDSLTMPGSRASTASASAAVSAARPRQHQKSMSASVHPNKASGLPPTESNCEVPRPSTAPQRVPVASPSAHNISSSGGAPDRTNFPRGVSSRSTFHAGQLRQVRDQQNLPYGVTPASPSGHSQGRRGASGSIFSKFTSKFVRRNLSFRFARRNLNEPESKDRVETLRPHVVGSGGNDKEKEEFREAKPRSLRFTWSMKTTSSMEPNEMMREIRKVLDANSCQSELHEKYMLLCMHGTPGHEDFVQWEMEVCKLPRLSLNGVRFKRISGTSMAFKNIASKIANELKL
UniProt P22234: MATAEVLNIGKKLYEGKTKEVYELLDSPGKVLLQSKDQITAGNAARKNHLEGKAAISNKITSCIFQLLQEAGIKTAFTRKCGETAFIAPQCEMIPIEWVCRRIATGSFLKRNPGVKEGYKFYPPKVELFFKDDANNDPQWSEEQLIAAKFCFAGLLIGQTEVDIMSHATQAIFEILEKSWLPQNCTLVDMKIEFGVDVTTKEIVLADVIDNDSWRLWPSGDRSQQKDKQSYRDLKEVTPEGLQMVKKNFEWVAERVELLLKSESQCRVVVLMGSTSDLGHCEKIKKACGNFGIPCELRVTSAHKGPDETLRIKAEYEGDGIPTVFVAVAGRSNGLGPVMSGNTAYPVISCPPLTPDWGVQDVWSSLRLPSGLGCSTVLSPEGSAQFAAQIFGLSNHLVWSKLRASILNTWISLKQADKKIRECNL
UniProt P04216: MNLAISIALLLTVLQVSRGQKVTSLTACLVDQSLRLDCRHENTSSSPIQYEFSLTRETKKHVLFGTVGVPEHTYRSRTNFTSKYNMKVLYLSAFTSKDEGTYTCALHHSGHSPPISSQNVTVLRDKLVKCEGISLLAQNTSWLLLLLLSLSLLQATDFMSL
UniProt P27695, whole entry: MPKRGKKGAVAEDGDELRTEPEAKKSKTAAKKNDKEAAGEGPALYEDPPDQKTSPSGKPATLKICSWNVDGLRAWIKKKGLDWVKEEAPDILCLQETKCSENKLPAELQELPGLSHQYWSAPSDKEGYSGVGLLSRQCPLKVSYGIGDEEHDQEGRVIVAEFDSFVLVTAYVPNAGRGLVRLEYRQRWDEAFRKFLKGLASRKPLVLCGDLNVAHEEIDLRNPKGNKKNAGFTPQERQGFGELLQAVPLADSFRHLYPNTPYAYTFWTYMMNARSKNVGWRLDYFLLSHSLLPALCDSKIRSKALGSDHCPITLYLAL
UniProt Q07864, whole entry: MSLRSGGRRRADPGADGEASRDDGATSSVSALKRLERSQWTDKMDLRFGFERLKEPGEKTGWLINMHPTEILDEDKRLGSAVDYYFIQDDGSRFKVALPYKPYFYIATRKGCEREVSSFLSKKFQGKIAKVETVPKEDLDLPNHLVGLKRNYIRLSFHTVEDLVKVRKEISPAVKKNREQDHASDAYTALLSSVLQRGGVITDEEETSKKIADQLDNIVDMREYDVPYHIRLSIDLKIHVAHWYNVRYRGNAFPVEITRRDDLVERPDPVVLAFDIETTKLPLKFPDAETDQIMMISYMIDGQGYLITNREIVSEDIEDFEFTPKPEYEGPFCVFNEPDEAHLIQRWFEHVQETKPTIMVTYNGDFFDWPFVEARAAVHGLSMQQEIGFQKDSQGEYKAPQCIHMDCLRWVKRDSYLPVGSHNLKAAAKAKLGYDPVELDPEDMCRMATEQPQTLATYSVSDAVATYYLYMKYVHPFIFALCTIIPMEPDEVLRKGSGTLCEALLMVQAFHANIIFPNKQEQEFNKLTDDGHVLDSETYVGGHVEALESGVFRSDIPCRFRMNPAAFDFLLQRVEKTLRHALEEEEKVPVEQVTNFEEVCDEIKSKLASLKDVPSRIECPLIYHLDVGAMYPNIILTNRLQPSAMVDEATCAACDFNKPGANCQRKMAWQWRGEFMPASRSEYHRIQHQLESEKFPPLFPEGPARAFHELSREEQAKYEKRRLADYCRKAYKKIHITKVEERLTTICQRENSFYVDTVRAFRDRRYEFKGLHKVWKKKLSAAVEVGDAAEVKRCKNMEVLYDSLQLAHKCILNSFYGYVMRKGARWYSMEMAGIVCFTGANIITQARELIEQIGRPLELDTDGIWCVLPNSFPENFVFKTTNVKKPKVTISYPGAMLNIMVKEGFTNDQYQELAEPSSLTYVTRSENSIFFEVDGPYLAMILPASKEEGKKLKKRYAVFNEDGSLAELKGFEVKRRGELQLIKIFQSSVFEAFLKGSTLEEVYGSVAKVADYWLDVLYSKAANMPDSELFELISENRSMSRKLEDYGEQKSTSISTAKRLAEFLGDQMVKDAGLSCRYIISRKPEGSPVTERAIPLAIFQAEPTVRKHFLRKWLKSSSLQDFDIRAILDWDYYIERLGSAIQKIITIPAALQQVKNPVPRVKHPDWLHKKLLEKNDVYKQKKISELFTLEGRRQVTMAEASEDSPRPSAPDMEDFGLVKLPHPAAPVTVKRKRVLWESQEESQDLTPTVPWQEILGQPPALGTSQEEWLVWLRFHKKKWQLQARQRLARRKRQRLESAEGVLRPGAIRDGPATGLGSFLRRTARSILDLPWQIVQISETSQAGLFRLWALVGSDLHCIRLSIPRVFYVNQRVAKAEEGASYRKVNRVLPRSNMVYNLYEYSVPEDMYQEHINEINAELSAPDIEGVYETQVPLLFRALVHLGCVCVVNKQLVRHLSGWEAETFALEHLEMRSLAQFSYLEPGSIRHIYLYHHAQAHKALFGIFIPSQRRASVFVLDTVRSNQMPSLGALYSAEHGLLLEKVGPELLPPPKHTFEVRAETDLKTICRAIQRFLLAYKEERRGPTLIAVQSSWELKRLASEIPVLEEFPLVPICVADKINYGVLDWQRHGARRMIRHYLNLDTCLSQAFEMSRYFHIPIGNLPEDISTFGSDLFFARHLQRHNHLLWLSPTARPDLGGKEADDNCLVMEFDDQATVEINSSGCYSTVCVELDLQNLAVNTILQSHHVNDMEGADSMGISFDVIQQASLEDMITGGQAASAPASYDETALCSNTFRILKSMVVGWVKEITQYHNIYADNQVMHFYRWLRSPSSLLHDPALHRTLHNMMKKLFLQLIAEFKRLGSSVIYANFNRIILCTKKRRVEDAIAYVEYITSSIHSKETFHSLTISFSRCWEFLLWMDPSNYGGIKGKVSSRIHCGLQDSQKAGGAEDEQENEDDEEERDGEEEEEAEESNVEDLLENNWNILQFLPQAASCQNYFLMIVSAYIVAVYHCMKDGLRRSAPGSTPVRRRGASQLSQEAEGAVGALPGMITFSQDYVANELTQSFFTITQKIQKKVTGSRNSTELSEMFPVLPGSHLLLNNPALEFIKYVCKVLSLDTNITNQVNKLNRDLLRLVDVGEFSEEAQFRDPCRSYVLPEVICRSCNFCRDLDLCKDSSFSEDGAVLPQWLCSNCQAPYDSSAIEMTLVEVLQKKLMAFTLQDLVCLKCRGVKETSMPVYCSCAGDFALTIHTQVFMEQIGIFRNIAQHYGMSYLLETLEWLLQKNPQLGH
UniProt Q7Z589: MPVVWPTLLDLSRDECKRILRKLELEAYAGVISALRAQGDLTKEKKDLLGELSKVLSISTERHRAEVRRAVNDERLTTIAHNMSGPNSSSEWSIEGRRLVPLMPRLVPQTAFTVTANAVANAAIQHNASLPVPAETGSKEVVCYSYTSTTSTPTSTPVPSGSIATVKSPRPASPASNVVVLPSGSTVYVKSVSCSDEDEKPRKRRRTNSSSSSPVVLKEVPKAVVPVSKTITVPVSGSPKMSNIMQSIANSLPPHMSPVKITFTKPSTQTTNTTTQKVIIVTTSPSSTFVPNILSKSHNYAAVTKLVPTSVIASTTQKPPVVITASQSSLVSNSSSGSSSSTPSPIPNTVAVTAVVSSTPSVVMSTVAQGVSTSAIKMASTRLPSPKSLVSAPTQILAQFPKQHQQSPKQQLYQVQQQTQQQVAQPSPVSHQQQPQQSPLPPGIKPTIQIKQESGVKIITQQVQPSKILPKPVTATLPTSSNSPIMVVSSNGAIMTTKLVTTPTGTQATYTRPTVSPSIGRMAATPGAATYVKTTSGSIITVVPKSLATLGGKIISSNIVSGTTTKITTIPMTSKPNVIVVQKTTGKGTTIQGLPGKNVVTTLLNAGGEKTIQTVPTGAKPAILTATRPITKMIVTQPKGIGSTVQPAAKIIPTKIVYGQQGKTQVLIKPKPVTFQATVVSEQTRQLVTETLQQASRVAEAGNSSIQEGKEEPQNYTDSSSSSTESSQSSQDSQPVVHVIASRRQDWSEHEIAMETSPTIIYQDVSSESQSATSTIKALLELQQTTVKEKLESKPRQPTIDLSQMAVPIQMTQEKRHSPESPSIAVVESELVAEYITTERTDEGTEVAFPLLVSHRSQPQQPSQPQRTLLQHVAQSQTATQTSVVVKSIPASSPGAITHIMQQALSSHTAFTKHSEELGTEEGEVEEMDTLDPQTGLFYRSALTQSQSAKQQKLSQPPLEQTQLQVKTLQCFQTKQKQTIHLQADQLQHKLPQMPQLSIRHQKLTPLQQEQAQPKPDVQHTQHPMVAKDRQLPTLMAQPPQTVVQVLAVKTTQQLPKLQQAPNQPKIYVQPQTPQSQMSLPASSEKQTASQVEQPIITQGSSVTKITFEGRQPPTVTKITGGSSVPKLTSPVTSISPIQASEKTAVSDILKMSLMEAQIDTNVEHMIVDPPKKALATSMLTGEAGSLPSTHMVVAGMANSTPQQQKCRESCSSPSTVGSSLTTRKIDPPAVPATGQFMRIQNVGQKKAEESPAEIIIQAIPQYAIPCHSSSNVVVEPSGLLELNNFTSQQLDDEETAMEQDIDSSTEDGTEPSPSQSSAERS

± gives the standard deviation of the averaged measurements. Only a part is listed here, and it is no random draw. Most entries show no effect beyond the scatter of the controls.

Compound in the test: Nc1ncnc2c1ncn2[C@@H]1O[C@H](COP(=O)(O)OP(=O)(O)OP(=O)(O)O)[C@@H](O)[C@H]1O [adenosine triphosphate]
Put plainly: NP40-soluble protein abundance relative to vehicle (solubility fold change) (ratio); higher = more soluble protein in presence of ATP. The conditions noted are these: concentration: 0.5mM. The gist of the method:
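Each value is a fold change relative to the detergent-processed vehicle, calculated per replicate from vsn-normalised intensities. Jurkat crude lysate received eight concentrations (0.1 to 10 mM) for 10 min at room temperature and 3 min at 37 °C, then was solubilised in 0.8% NP40 with benzonase (60 min, 4 °C). The ultracentrifuged supernatant was TMT-labelled and run by LC-MS/MS in three independent experiments.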
For the target “E7EQR8 and related entries (UniProt Q9GZM5)”, the NP40-soluble protein abundance stood at 1.07 ± 0.053.

On to “F8W543 and related entries (UniProt P55209)”, for which the NP40-soluble protein abundance is 0.941 ± 0.032.

As to “E7EQ69 and related entries (UniProt Q9GZZ1)”, the NP40-soluble protein abundance was found to be 0.947 ± 0.073.

Turning to “F5GWA4 and related entries (UniProt Q9H3F6)”, the NP40-soluble protein abundance was 1.17 ± 0.049.

With “F8W7U8 and related entries (UniProt P49959)”, the NP40-soluble protein abundance was 1.08 ± 0.059.

“E9PC69 and related entries (UniProt Q7KZI7)”: the NP40-soluble protein abundance was 1.29 ± 0.15.

For the target “E9PBS1 and related entries (UniProt P22234)”, the NP40-soluble protein abundance worked out at 1 ± 0.048.

Regarding F8WC89 (UniProt A6NKF1), the NP40-soluble protein abundance turned out to be 0.947 ± 0.053.

With “E9PQY3 and related entries (UniProt P11117)”, the NP40-soluble protein abundance was 0.968 ± 0.17.

For the target “E9PLI6 and related entries (UniProt Q8N9N8)”, the NP40-soluble protein abundance was 1.01 ± 0.065.

Take E9PJD7 (UniProt P0DTL6): the NP40-soluble protein abundance was 1.06 ± 0.1.

As for “E9PIM6 and related entries (UniProt P04216)”, the NP40-soluble protein abundance was 0.897 ± 0.16.

On to “E7ESC7 and related entries (UniProt Q7L5Y9)”, for which the NP40-soluble protein abundance is 0.996 ± 0.07.

Consider “G3V3M6 and related entries (UniProt P27695)”, for which the NP40-soluble protein abundance was found to be 1.01 ± 0.06.

“F5H1D6 and related entries (UniProt Q07864)”: the NP40-soluble protein abundance was found to be 1.04 ± 0.041.

Consider “D6RIE5 and related entries (UniProt Q9ULK6)”, for which the NP40-soluble protein abundance was determined as 0.881 ± 0.12.

As to “E5RHW4 and related entries (UniProt O94905)”, the NP40-soluble protein abundance is 1.02 ± 0.14.

As to UniProt G3V599, the NP40-soluble protein abundance worked out at 0.969 ± 0.022.

Consider “E9PMC9 and related entries (UniProt Q7Z589)”, for which the NP40-soluble protein abundance stood at 0.968 ± 0.032.

G3V3G9 (UniProt P40855): the NP40-soluble protein abundance amounted to 1.02 ± 0.033.
